Holding throughout (experiment): two-hybrid; array-based yeast two-hybrid screens; each protein as bait (Gal4 DNA-binding domain) and as prey (Gal4 activation domain), N- and C-terminal fusions; bait-prey vector pairs pDEST32-pDEST22, pGBKT7g-pGADT7g, pGBKT7g-pGADCg, pGBKCg-pGADCg, pGBKCg-pGADT7g; ten configurations a pair; positives retested
Experiment [1] deals with T1, C protease (bacteriophage lambda) (UniProt P03711).
T1 sequence: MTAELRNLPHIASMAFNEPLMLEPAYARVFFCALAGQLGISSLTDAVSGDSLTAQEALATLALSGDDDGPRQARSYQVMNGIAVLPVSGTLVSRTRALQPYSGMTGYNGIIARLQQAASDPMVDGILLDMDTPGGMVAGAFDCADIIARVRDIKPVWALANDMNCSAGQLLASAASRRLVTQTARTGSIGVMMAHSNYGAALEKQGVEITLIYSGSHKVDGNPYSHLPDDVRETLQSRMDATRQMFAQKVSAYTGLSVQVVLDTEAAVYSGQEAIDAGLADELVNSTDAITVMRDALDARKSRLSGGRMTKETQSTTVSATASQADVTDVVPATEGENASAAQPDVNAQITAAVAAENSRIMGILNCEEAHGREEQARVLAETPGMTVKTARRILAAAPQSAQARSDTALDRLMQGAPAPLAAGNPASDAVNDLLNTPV

Experiment [2] has as its target T2, DNA packaging protein A (bacteriophage lambda) (UniProt P03708).
T2 sequence: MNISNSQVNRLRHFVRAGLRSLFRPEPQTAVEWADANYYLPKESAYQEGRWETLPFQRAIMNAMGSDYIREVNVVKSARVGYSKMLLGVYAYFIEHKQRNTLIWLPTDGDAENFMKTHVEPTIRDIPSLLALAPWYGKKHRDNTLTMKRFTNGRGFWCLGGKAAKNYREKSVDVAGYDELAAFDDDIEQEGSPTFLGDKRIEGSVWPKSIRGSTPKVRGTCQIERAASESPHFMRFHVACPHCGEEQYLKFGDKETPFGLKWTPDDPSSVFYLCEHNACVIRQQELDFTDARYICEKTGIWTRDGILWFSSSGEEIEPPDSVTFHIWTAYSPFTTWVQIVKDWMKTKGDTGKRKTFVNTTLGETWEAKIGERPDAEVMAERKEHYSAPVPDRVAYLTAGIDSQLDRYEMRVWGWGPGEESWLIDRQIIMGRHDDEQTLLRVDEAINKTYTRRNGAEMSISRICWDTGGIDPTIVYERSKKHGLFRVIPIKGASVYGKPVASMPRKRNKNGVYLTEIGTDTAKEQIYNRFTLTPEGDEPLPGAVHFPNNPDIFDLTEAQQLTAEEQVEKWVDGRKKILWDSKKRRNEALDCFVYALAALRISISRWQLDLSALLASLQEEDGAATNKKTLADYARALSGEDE

The next experiment addresses T3, M (bacteriophage lambda) (UniProt P03737).
T3 sequence: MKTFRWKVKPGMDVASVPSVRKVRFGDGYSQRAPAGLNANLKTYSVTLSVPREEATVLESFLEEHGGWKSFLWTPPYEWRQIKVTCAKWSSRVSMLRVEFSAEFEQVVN

In another experiment the target is T4, U (bacteriophage lambda) (UniProt P03732).
T4 sequence: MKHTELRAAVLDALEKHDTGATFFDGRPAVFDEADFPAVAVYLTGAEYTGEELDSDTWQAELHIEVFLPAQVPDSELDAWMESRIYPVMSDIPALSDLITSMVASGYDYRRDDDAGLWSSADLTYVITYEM

In experiment [3] the target is T5, RexB (bacteriophage lambda) (UniProt P03759).
T5 sequence: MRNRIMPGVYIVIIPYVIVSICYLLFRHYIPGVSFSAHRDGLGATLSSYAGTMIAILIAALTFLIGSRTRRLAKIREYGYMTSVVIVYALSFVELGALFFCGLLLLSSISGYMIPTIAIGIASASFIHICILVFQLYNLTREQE

For experiment [4], the target named is T6, major capsid protein E (bacteriophage lambda) (UniProt P03713).
T6 sequence: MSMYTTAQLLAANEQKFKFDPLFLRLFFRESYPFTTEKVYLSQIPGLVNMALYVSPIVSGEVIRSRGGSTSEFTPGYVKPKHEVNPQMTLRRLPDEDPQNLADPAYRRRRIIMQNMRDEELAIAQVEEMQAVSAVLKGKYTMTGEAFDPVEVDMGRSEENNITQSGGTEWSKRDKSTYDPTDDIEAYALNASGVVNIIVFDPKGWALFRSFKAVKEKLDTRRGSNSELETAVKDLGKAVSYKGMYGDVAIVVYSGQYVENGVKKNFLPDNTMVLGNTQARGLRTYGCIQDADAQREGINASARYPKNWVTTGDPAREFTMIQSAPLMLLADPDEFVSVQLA

The target of experiment [5] is Ea8.5 (bacteriophage lambda).
Experiment [6] has as its target NinI (Ser/Thr protein phosphatase) (bacteriophage lambda).
Experiment [7] has as its target Orf63 (bacteriophage lambda).
In experiment [8] the target is Orf35 (bacteriophage lambda).

Results are given in words; binding and its absence hold for the method and conditions named. A result given as binding can be weak or reduced; the word gives no strength.

Regarding Orf79 (bacteriophage lambda), the binding entry in [1] and in experiment [2] was “binds” each time.
For the molecule Orf35 (bacteriophage lambda), in the experiment with M (bacteriophage lambda), the binding entry was “binds”.
Take Orf78 (bacteriophage lambda): the binding result (in the experiment with U (bacteriophage lambda); in experiment [3]) was “binds” throughout.
In the case of “scaffolding protein Nu3 (bacteriophage lambda)”, the binding entry (with M (bacteriophage lambda); in experiment [4]) was “binds” each time.

B1: tail fiber protein Tfa (protein, UniProt P03740 1-194)
chain: MAFRMSEQPRTIKIYNLLAGTNEFIGEGDAYIPPHTGLPANSTDIAPPDIPAGFVAVFNSDEASWHLVEDHRGKTVYDVASGDALFISELGPLPENFTWLSPGGEYQKWNGTAWVKDTEAEKLFRIREAEETKKSLMQVASEHIAPLQDAADLEIATKEETSLLEAWKKYRVLLNRVDTSTAPDIEWPAVPVME
In the case of B1, in [5], the binding result is recorded as “binds”.

B2: tail fiber protein Stf (protein, UniProt P03740 1-194)
chain: B1 chain
For the molecule B2, the binding result in experiment [5] is listed as “binds”.

B3: antiterminator Q (protein, UniProt P03047 1-207)
chain: MRLESVAKFHSPKSPMMSDSPRATASDSLSGTDVMAAMGMAQSQAGFGMAAFCGKHELSQNDKQKAINYLMQFAHKVSGKYRGVAKLEGNTKAKVLQVLATFAYADYCRSAATPGARCRDCHGTGRAVDIAKTELWGRVVEKECGRCKGVGYSRMPASAAYRAVTMLIPNLTQPTWSRTVKPLYDALVVQCHKEESIADNILNAVTR
With B3, the binding entry in experiment [6], in [7] and in experiment [5] was “binds” throughout.

B4: Integrase (Int) (protein, UniProt P03700 1-356)
chain: MGRRRSHERRDLPPNLYIRNNGYYCYRDPRTGKEFGLGRDRRIAITEAIQANIELFSGHKHKPLTARINSDNSVTLHSWLDRYEKILASRGIKQKTLINYMSKIKAIRRGLPDAPLEDITTKEIAAMLNGYIDEGKAASAKLIRSTLSDAFREAIAEGHITTNHVAATRAAKSEVRRSRLTADEYLKIYQAAESSPCWLRLAMELAVVTGQRVGDLCEMKWSDIVDGYLYVEQSKTGVKIAIPTALHIDALGISMKETLDKCKEILGGETIIASTRREPLSSGTVSRYFMRARKASGLSFEGDPPTFHELRSLSARLYEKQISDKFAQHLLGHKSDTMASQYRDDRGREWDKIEIK
Take B4: the binding entry in [8] and in experiment [5] was “binds” throughout.

B5: antiterminator N (protein, UniProt P03045 1-107)
chain: MDAQTRRRERRAEKQAQWKAANPLLVGVSAKPVNRPILSLNRKPKSRVESALNPIDLTVLAEYHKQIESNLQRIERKNQRTWYSKPGERGITCSGRQKIKGKSIPLI
With B5, the binding entry in [6] and in experiment [7] was “binds” each time.

B6: Rz1 (protein, UniProt Q37935 1-60)
chain: MLKLKMMLCVMMLPLVVVGCTSKQSVSQCVKPPPPPAWIMQPPPDWQTPLNGIISPSERG
For the molecule B6, the binding result in experiment [7] is “binds”.

B7: P (protein, UniProt P03689 1-233)
chain: MKNIAAQMVNFDREQMRRIANNMPEQYDEKPQVQQVAQIINGVFSQLLATFPASLANRDQNEVNEIRRQWVLAFRENGITTMEQVNAGMRVARRQNRPFLPSPGQFVAWCREEASVTAGLPNVSELVDMVYEYCRKRGLYPDAESYPWKSNAHYWLVTNLYQNMRANALTDAELRRKAADELVHMTARINRGEAIPEPVKQLPVMGGRPLNRAQALAKIAEIKAKFGLKGASV
With B7, in experiment [7], the binding entry was “binds”.

B8: K (protein, UniProt P03729 1-199)
chain: MSPEDWLQAEMQGEIVALVHSHPGGLPWLSEADRRLQVQSDLPWWLVCRGTIHKFRCVPHLTGRRFEHGVTDCYTLFRDAYHLAGIEMPDFHREDDWWRNGQNLYLDNLEATGLYQVPLSAAQPGDVLLCCFGSSVPNHAAIYCGDGELLHHIPEQLSKRERYTDKWQRRTHSLWRHRAWRASAFTGIYNDLVAASTFV
On to B8, for which, in experiment [8], the binding result is given as “binds”.

B9: CII (protein, UniProt P03042 1-97)
chain: MVRANKRNEALRIESALLNKIAMLGTEKTAEAVGVDKSQISRWKRDWIPKFSMLLAVLEWGVVDDDMARLARQVAAILTNKKRPAATERSEQIQMEF
With B9, the binding result in experiment [8] is recorded as “binds”.

The values above are taken from paper PMC3224144.
